In PubChem BioAssay AID1508600 (Functional Genomics Laboratory (NCATS/FGL), 2020) one finds z-score data, which are given here for 68 sequences.

In all, about 53,000 sequences went through this assay and about 3,700 (7%) were called active.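 How the source made its calls: active means gene knockdowns whose robust z-score for IL-1 alpha signal is at least 2 or at most -2, so actives lie on both sides; inactive means the rest.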 This is one part of the list.

The assay is described as follows: Components of the Cytosolic LPS Sensing Pathway: Gene Identification via Genome-wide siRNA Screen. The following applies: RAW264.7 macrophages, IL-1a HTRF, actives lie on both sides, screened at 100 nM (by protocol), cells primed 5 h with Pam3CSK4 first. An excerpt: Non-canonical inflammasome activation by cytosolic LPS is a critical component of the host response to Gram-negative bacterial infection, however we lack a comprehensive understanding of the cellular processes that control this pathway. Here we describe a genome-wide siRNA screen to identify genes regulating the mouse macrophage IL-1 alpha response to cytosolic LPS.
RAW264.7 cells were maintained in complete DMEM media, comprising DMEM with 4.5 g/L glucose, 10% FBS (Gemini Bio-Products, West Sacramento, CA), 2 mM Glutamine (Lonza) and 20 mM HEPES (Lonza), hereafter complete DMEM.
The RNAi screen was conducted in 384-well format using the Ambion Silencer Mouse Genome siRNA Library (#4391425), which consists of three unique, nonoverlapping, nonpooled siRNAs for each of 17,000 gene targets. siRNA reagents ([…]) were stamped into 384-well white flat-bottom microplates (Corning, 3570) using a Velocity11 VPrep liquid handling system (Agilent) integrated into a BioCel robotic platform (Agilent) in columns 1-22, leaving columns 23-24 empty for negative (Ambion, Negative control #1) and positive (mouse Casp4) controls, respectively. The median value of each plate's negative control column was used to normalize sample wells, and the positive control was used to assess transfection efficiency and assay performance.
Lipofectamine RNAiMAX Transfection Reagent ([…]; Invitrogen) was added in […] serum-free, antibiotic-free media to plate wells using a Thermo Scientific Matrix WellMate and Microplate Stacker. Plates were incubated for 45 min at room temperature to allow for the sufficient formation of siRNA-lipid complexes. Cells were seeded at a density of 1x10^4 cells per well in 20 microL media containing 20% (vol/vol) FBS without antibiotics. The final concentration of siRNA in each well was 100 nM. Cells were cultured for 48h at 37 degrees C in 5% CO2 before addition of […] of TLR ligand Pam3CSK4 for 5 hours. The medium was then removed, replaced with […] growth media and cell were transfected with […] of LipidA and TransIT-TKO (Mirus) for 24 hour. At the end of the LipidA treatment, […] of supernatant was transferred to a 384 Greiner Bio-one non-binding low volume plate and […] of IL-1a HTRF reagent (Cisbio, 62MIL1APEH) was added and incubated at room temperature overnight. The plates were read on an EnVision plate reader (PerkinElmer). Cell viability was measured by adding 20ul Cell Titer Glo to the original plate and running a luminescence read on the EnVision. The quantified IL-1a signal for each siRNA gene-targeted well was divided by the median of the negative control wells and multiplied by 100 to achieve a negative control normalized value for each well/siRNA. This normalized value was then used to generate a robust z-score by first taking the log of each value and then by subtracting the median and dividing by the […].
On the technique in general: TR-FRET usually uses a lanthanide donor and a delayed reading to cut background.
For the sequence CCGAGAUAUGAAUCAAAUUTT against Wars, the z-score was active: 2.19.

In the case of GGAGAAACUUCGAGAUAGATT against Isoc2b, the z-score is inactive: -1.39.

As for GCCUUAUCUAAAAGCCAAGTT against Ckap2l, the z-score is inactive: 0.664.

As for GGUGGAAUGAUAGUGUUCATT against Neurl1b, the z-score is inactive: 1.67.

Consider GGGAAAAAGAACAAAAGCATT against Aarsd1, for which the z-score was inactive: -0.344.

For CCAAUGGGAACAGUCCUGATT against Cela2a, the z-score was inactive: -0.832.

As for GGUCAAGCUUAAAAAACCCTT against Dennd6b, the z-score is inactive: -1.75.

GGUUGAAUAGCACUGGGACTT against Slitrk5: the z-score was inactive: -1.35.

For the sequence GGAGCACAACAUUUUUAUGTT against Atp6v0d2, the z-score is inactive: 0.0663.

In the case of CAUCCCGCAUUCCAGUUACTT against Rgs3, the z-score is inactive: 0.823.

For “GCUUUUCAUACCUGUUUCCTT against 9930111J21Rik2”, the z-score is inactive: -0.227.

In the case of CGAUUAUGACCUGAUCAUATT against Serpinb13, the z-score was inactive: 0.999.

With GGUGUUAAUGAGGACACUUTT against Slc25a22, the z-score is inactive: -0.337.

On to GGGCUUCUUACCAGUCAGATT against Nuf2, for which the z-score is inactive: -0.0662.

Turning to GGUGAGACUAUAAAGAUAATT against Piwil4, the z-score is inactive: 0.841.

With GGAGGUUAUACCAACCUUUTT against Mcm4, the z-score was inactive: -0.0511.

Take GCUUGUUCAGGAAAUGAAATT against Tmcc3: the z-score is inactive: -1.15.

As to GCUUAACGAGCCUUAGAAATT against Btf3l4, the z-score is inactive: -0.468.

Regarding GCUACAGGAUAAGUCCAAUTT against Kpnb1, the z-score was active: -2.01.

Take GAAAUCAUCCUGCCCAAAGTT against Vax1: the z-score is inactive: 0.874.

Regarding GAAUAGAAGGGAAGAAAGUTT against Crb3, the z-score is active: -2.08.

In the case of GGAAGUGUUUGAUGUUCUUTT against Gtf2ird1, the z-score was inactive: 0.0156.

As for CGGCACCUUCUACACAUCATT against Sirt2, the z-score is inactive: -1.41.

With GCAAAUCAUACCUACCGGCTT against Cuzd1, the z-score was inactive: 0.278.

Regarding GGUGCUGAUCUUGAACUACTT against Slc22a6, the z-score was inactive: 1.7.

Regarding GGCACUCCUCAAUAUAGAUTT against Elf1, the z-score was inactive: 0.267.

As for GAAGAUGUACAGAUUUUCCTT against Tomm22, the z-score is inactive: 0.616.

For the sequence GGAGAGACGCGCUAUUAUATT against Bub1b, the z-score is inactive: 0.934.

For GGAAGUUCAACACCUCCAGTT against Lrrc45, the z-score was inactive: -1.82.

Turning to GGGAUUUCGAGAGACUAGCTT against Dock9, the z-score is inactive: -0.487.

For GGAACAAAGUGUUUAAAACTT against Ptprj, the z-score is inactive: 0.717.

Take GGAUGUCCUGGAAUAUGUGTT against Mrpl45: the z-score is inactive: 0.0662.

On to CCACAUUUCUAGUUGUUUATT against Olfr1151, for which the z-score was inactive: -1.77.

In the case of GGGCAGAGUGAUGUUGUCATT against Gsdmd, the z-score is active: -3.34.

Regarding GGAAAAAAUCAGGAGAUCUTT against Fbxo34, the z-score was inactive: -0.124.

AUUUCUGUAAGGCAAAUGUTT against Olfr970: the z-score is inactive: -0.454.

As to GGACAUGGUUUAGGUUAGATT against Zxda, the z-score was inactive: 1.08.

Take GCUCUUAGAAUCAUCGUCCTT against Ctbp1: the z-score was inactive: 0.528.

CCUAGCAAUGUAGUAUCUATT against Snap23: the z-score was inactive: -0.406.

GGUAUUAGAAAUCCUGAUCTT against Pias2: the z-score was inactive: -0.716.

Turning to GGAUGGACCAAAGAGAUAUTT against Ldb1, the z-score was inactive: -0.34.

Take GGUCAAGAGUGCAUUCAAATT against Olfr1445: the z-score is inactive: 0.266.

Take GGUGUGUGGCCAGAAAGUUTT against Sfi1: the z-score is active: -2.83.

For the sequence GGGAACCUGUUUUCUUUCUTT against Nudt3, the z-score is inactive: 1.21.

On to GGAAAGUCACAACACUUCCTT against Lamp5, for which the z-score was inactive: -0.923.

As to GCUAGCUCGUGUGAUGUUUTT against Twnk, the z-score was inactive: -0.933.

GCAGCAGUUGGCUAAAACATT against Bbof1: the z-score is inactive: -1.14.

As to GCAUGCUUGGAACAUUCCGTT against Ctnna3, the z-score was inactive: 0.518.

Consider GGGACUUGGGACUUGUGGATT against Saa4, for which the z-score was inactive: 0.328.

As for GCAAUGUAACCCUGAAAAUTT against Cd48, the z-score is inactive: -1.03.

As to GAGAGAGACAAUCCUGAAGTT against Klra22, the z-score is inactive: -0.0539.

For the sequence ACUGUUUAAUCACUGUGGUTT against Olfr891, the z-score is inactive: -0.994.

With CGUAAAGGAACACUCUCGGTT against Eif3i, the z-score is inactive: -0.218.

With GGAGCAAUGUUGUCACAACTT against Fbln1, the z-score is inactive: 0.483.

As for GGUCGUAUAUAAUUUGAUGTT against Nnt, the z-score is inactive: 0.208.

Turning to GGAAAGGUGCUUUUCAAAATT against Nedd9, the z-score is inactive: 0.625.

Regarding GCUCGUCAUUGAAAUAGUGTT against Igtp, the z-score is inactive: 0.274.

Consider GGAAGAAUCCUCCAUGGAGTT against Mrpl24, for which the z-score is inactive: 1.35.

For the sequence GGGAUUGAACAGUUAUGUATT against Sub1, the z-score is inactive: -0.662.

Take GGAUUCUUCUUCCACUUUGTT against Fbxo46: the z-score is inactive: -0.0241.

As to GGAAAGAAGAAGAGUCUAATT against Nucb2, the z-score was inactive: 0.994.

For GCACUUUGUGCUAGAUGAATT against Ddx39a, the z-score was inactive: -0.688.

Turning to GCACACCUCUAGUGGACUUTT against Taf10, the z-score was inactive: -1.13.

In the case of GGGAAGUGGGAUUCCUAAGTT against Fam220a, the z-score was inactive: 0.218.

In the case of GGAAGUGUUAAAUCCUGCUTT against Rnaseh1, the z-score is inactive: -0.459.

For the sequence CCUUGUAUGGAAUUUAAAGTT against Rbm6, the z-score is inactive: 0.65.

For GGGUGUCACAAAAUAAAAUTT against Sigirr, the z-score was inactive: -0.245.

On to GGAAGUUGAGAGCUUAAAGTT against Pank3, for which the z-score is inactive: -0.177.
